In one data set the test system is hCG. Briefly: Chemiluminescence enzyme immunoassay of hCG (POD-labeled antibody, luminol, hydrogen peroxide) with enhancer. In kind it is biochemical, human.
Data set [1] can be described thus: Chemiluminescence enzyme immunoassay of E2 (POD-labeled anti-immunocomplex antibody, luminol, hydrogen peroxide) with enhancer. In kind it is biochemical.
Setting [2] is: concentration of enhancer 0.10 (reaction concentration, mM), luminescence intensity of 10 mIU/mL hCG solution / blank sample.
[3] abbreviates: concentration of enhancer 0.10 (reaction concentration, mM), luminescence intensity of 30,000 mIU/mL / 20,000 mIU/mL hCG solution.
[4] abbreviates: concentration of enhancer 0.10 (reaction concentration, mM), luminescence intensity of 200 μg/mL E2 solution / blank.
[5] abbreviates: concentration of enhancer 0.10 (reaction concentration, mM), luminescence intensity of 3,000 μg/mL / 2,000 μg/mL E2 solution.

Consider `Oc1ccccc1.c1cscn1` [TP, thiazole phenol, reference compound], for which the figures for the Low sensitivity (with hCG (setting [2]); in data set [1] (setting [4])) were 19.78 and 30.67, respectively. For the same molecule, the High sensitivity in the data set on hCG (setting [3]) worked out at 0.99; in data set [1] (setting [5]), 0.87.
Regarding `Oc1ccc(-c2cccc(F)c2)cc1` [Example 5], the Low sensitivity in data set [1] (setting [4]) was determined as 36.56. Further, the High sensitivity in data set [1] (setting [5]) turned out to be 1.31.
As to `Oc1ccc(-c2ccccn2)cc1` [Example 10], the Low sensitivity in data set [1] (setting [4]) was determined as 40.33. Moreover, the High sensitivity in data set [1] (setting [5]) is given as 1.86.
For the molecule `Oc1ccc(-n2cccc2)cc1` [Example 17], the Low sensitivity in data set [1] (setting [4]) is given as 29.07. Further, the High sensitivity in data set [1] (setting [5]) is 1.79.
Turning to `O=C(O)c1cccc(-c2ccc(O)cc2)c1` [Example 3], the Low sensitivity in data set [1] (setting [4]) came to 37.48. For the same molecule, the High sensitivity in data set [1] (setting [5]) was 1.63.
For the molecule `O=C(O)c1ccc(-c2ccc(O)cc2)cc1` [BiPCA, 4-(4-hydroxyphenyl)benzoic acid], the Low sensitivity with hCG (setting [2]) is 36.97; with hCG (concentration of enhancer 0.15 (reaction concentration, mM), 10 mIU/mL hCG / blank) it was 37.75; with hCG (concentration of enhancer 0.30 (reaction concentration, mM), 10 mIU/mL hCG / blank), 38.66; in data set [1] (setting [4]), 41.87; in data set [1] (concentration of enhancer 0.15 (reaction concentration, mM), 200 μg/mL E2 / blank), 42.21; in data set [1] (concentration of enhancer 0.30 (reaction concentration, mM), 200 μg/mL E2 / blank), 49.20. The High sensitivity in the data set with hCG (setting [3]) came out at 1.23; with hCG (concentration of enhancer 0.15 (reaction concentration, mM), 30,000 / 20,000 mIU/mL hCG), 1.25; in the data set with hCG (concentration of enhancer 0.30 (reaction concentration, mM), 30,000 / 20,000 mIU/mL hCG), 1.22; in data set [1] (setting [5]) it was 1.61; in data set [1] (concentration of enhancer 0.15 (reaction concentration, mM), 3,000 / 2,000 μg/mL E2), 1.62; in data set [1] (concentration of enhancer 0.30 (reaction concentration, mM), 3,000 / 2,000 μg/mL E2), 1.59.
As for `Oc1ccc(-c2cocn2)cc1` [Example 16], in data set [1] (setting [4]), the Low sensitivity is recorded as 25.22. Besides, the High sensitivity in data set [1] (setting [5]) came out at 1.60.
The like results for `O=C(O)c1ccc(-c2ccc(O)cc2)s1` [Example 15] were, in that order, 38.30 and 1.76.
In the case of `COc1cccc(-c2ccc(O)cc2)n1` [Example 11], the Low sensitivity in data set [1] (setting [4]) came to 34.51. For the same molecule, the High sensitivity in data set [1] (setting [5]) stood at 1.81.
The like results for `Oc1ccc(-c2cccc(Cl)c2)cc1` [Example 7] were, in that order, 25.97 and 1.48.
In the case of `NC(=O)c1ccc(-c2ccc(O)cc2)cc1` [Example 4], the Low sensitivity in data set [1] (setting [4]) was found to be 32.47. Moreover, the High sensitivity in data set [1] (setting [5]) is 1.64.
On to `Oc1ccc(Br)cc1` [PBP, reference compound], for which the Low sensitivity in data set [1] (setting [4]) was 8.15; in data set [1] (concentration of enhancer 0.10 (reaction concentration, mM), luminescence intensity of 200 μg/mL E2 solution / blank, listed as Comparative Example 3) it was “significantly reduced”. Further, the High sensitivity is 1.62 in data set [1] (setting [5]) and “improved” in data set [1] (concentration of enhancer 0.10 (reaction concentration, mM), luminescence intensity of 3,000 μg/mL / 2,000 μg/mL E2 solution, listed as Comparative Example 3).
For the molecule `COc1ncccc1-c1ccc(O)cc1` [Example 12], the Low sensitivity in data set [1] (setting [4]) amounted to 40.38. Moreover, the High sensitivity in data set [1] (setting [5]) is on record as 1.41.
`COc1ccccc1-c1ccc(O)cc1` [Example 6]: in data set [1] (setting [4]), the Low sensitivity is 38.72. Further, the High sensitivity in data set [1] (setting [5]) came out at 1.30.
The matching figures for `O=C(O)c1cc(-c2ccc(O)cc2)cs1` [Example 14]: 42.67 and 1.60.
Take `Cc1cncc(-c2ccc(O)cc2)c1` [Example 13]: the Low sensitivity in data set [1] (setting [4]) was determined as 39.94. Also, in data set [1] (setting [5]), the High sensitivity is given as 1.71.
With `Cc1cccc(-c2ccc(O)cc2)n1` [Example 9], the Low sensitivity in data set [1] (setting [4]) was 44.76. In addition, the High sensitivity in data set [1] (setting [5]) is recorded as 1.69.
`Cc1ccc(-c2ccc(O)cc2)nc1` [Example 8]: in data set [1] (setting [4]), the Low sensitivity is 56.23. In addition, in data set [1] (setting [5]), the High sensitivity turned out to be 1.49.
For `Oc1ccc(I)cc1` [PIP, reference compound], the Low sensitivity in data set [1] (setting [4]) is 17.91; in data set [1] (concentration of enhancer 0.10 (reaction concentration, mM), luminescence intensity of 200 μg/mL E2 solution / blank, listed as Comparative Example 4), “significantly reduced”. Besides, the High sensitivity in data set [1] (setting [5]) is on record as 1.68; in data set [1] (concentration of enhancer 0.10 (reaction concentration, mM), luminescence intensity of 3,000 μg/mL / 2,000 μg/mL E2 solution, listed as Comparative Example 4), “improved”.

For the origin of these results see patent publication US20260227417A1, “METHOD FOR MEASURING ANTIGEN CONTAINED IN TEST SAMPLE, AND KIT FOR MEASURING HUMAN CHORIONIC GONADOTROPIN OR ESTRADIOL” (FUJIFILM Corporation, priority 2023, published 2026).
